Results reported in PubChem BioAssay AID504444 (National Center for Advancing Translational Sciences (NCATS), 2011).
The campaign covered roughly 360,000 compounds. About 7,500 (2.1%) were called active. Inconclusive results, whose numbers are uncertain, are shown with a selection of clear calls. Calls follow the shape of the dose curve; as a rule, active = well fitted inhibition curve with a large enough effect; inconclusive = small, poorly fitted or top-dose-only effect, or effect the other way; inactive = flat fitted curve, though single readings scatter. Potencies beside an inconclusive call are fits to weak or partial responses and may not hold up.

Test: Nrf2 qHTS screen for inhibitors; also: nearly all actives have a fitted effect of over 60% in size
Settings: A549 ARE-Fluc reporter, luciferase luminescence, 18-24 h; series mostly up to 46 µM
Method in brief: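 In this cell-based qHTS, ARE-driven firefly luciferase in A549 cells reports Nrf2 activity; the luminescent signal after BugLite lysis is the measured value, with a prior CellTiter-Fluor read for cell health.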
Potency is read from the fitted curve at half-maximal effect.

SMILES	Potency
CCN(CC)CC#CCOC(=O)C(O)(c1ccccc1)C1CCCCC1 (stereo not drawn)	inactive
O=C(CCc1cn(Cc2ccc(F)cc2)c2ccccc12)NCCc1ccc(Cl)cc1	inactive
O=C(NCCc1ccccc1F)c1cccc2cccnc12	inconclusive: 10.3 µM [activator, partial curve]
Clc1ccc2c(NCCNC3CCCCC3)ccnc2c1	inactive
C=C(C)Cn1c(CCNC(=O)CC)nc2ccccc21	inactive
CC(OC(=O)c1ccc2c(=O)n3c(nc2c1)CCCCC3)C(N)=O (stereo not drawn)	inconclusive: 18.4 µM [activator, partial curve]
c1ccc(CCNc2nc(-c3cccnc3)cs2)cc1	inconclusive: 29.1 µM [falling, single point]
Cc1ccc2nc3c(cc(C(=O)NCCc4ccccc4)c(=N)n3CCCN3CCOCC3)c(=O)n2c1	inconclusive: 29.1 µM [activator, partial curve, poor fit]
COc1ccc(C(=O)N(Cc2ccccc2)Cc2ccccc2)c(O)c1	inconclusive: 29.1 µM [falling, partial curve, poor fit]
COc1ccc(CN(C)C(=O)COC(=O)c2c(C)nn(-c3ccc(F)cc3)c2Cl)cc1	inconclusive: 23.1 µM [falling, partial curve, poor fit]
O=C1C=C(Nc2ccccc2O)c2ccccc2C1=O	inconclusive: 29.1 µM [falling, single point]
CCC(=O)NN1CCc2cc3ccc(C)cc3nc21	inconclusive: 11.6 µM [activator, partial curve, poor fit]
CSc1nc2ccc(NC(=O)c3ccco3)cc2s1	inconclusive: 18.4 µM [activator, partial curve]
CCN(CC)C(=O)[C@H]1CC(CC(=O)NCc2cccc(C(F)(F)F)c2)C(=O)N2CCc3c([nH]c4ccc(OC)cc34)[C@]12C (stereo partly drawn)	inconclusive: 32.6 µM [falling, single point]
COc1cc(C)ccc1OCC(=O)OCC(=O)c1[nH]c(C)c(C(C)=O)c1C	inactive
Cc1ccc(NC(=O)/C=C\C(=O)NCC(=O)O)cc1C	inconclusive: 6.51 µM [activator, single point]
CCOC(=O)N1CCN(CC(=O)N2c3ccccc3Sc3ccccc32)CC1	inactive
Cc1cc(C)c(C(=O)COC(=O)c2ccc(NC(=O)CC#N)cc2)cc1C	inconclusive: 29.1 µM [falling, single point]
O=C(O)CSc1cccc[n+]1[O-]	inactive
CCc1ccc(OC(C)c2nc(-c3ccc(-n4cccc4)cc3)no2)cc1 (stereo not drawn)	active: 8.2 µM
O=C(CCSc1ccccc1)N1CCN(c2ccccc2)CC1	inconclusive: 16.4 µM [activator, partial curve, poor fit]
CCOC(=O)C1=C(C)NC(=O)NC1c1ccc(Br)o1 (stereo not drawn)	inactive
COc1ccc(NC(=O)CN(C)C(=O)CNC(=O)c2ccc(C)s2)cc1	inconclusive: 23.1 µM [activator, partial curve, poor fit]

SMILES	Potency
Cc1ccc2nc(NC(=O)c3ccc(Br)o3)sc2c1	inconclusive: 6.51 µM [activator, single point]
COCc1nc2cccnc2n1C1CCN(S(=O)(=O)N(C)C)CC1	inactive
CCOc1ccc(CCNc2ncnc3onc(-c4ccc(Cl)cc4)c23)cc1OCC	inconclusive: 29.1 µM [falling, single point]
C[C@@]12C(=O)OC(=O)[C@]1(C)C1CCC2O1	inconclusive: 7.31 µM [falling, partial curve, poor fit]
Cc1ccc2c(c1)CCCN2C(=O)CCc1nc2ccccc2c(=O)[nH]1	inconclusive: 16.4 µM [falling, partial curve, poor fit]
O=C(N/N=C/c1ccccc1[N+](=O)[O-])c1cccs1	inconclusive: 0.517 µM [activator, full curve]
CCCc1nc(-c2ccccc2)c(-c2ccc(OC)c(OC)c2)c(=O)[nH]1	inconclusive: 0.184 µM [activator, partial curve]
Cc1nc([N+](=O)[O-])c(Br)n1CC(=O)c1ccc2ccccc2c1	inconclusive: 6.51 µM [activator, partial curve, poor fit]
Cc1ccc(S(=O)(=O)c2c(N)n(NC(=O)C3CC3)c3nc4ccccc4nc23)cc1	inconclusive: 0.231 µM [falling, partial curve, poor fit]
CCOC(=O)C1CCN(C(=O)Nc2ccc3oc(C)nc3c2)CC1	inactive
C/C(=N\NC(N)=S)c1cc(-c2ccccc2)c(-c2ccccc2)s1	inactive
CCC1CCc2sc(C(=O)NCC3CCCO3)cc2C1 (stereo not drawn)	inconclusive: 1.64 µM [activator, full curve]
CC(C)(C)c1ccc(Cn2c(Cc3ccccc3)nc3ccccc32)cc1	active: 23.1 µM
CC(CC(=O)O)CC(=O)Nc1cccc([N+](=O)[O-])c1 (stereo not drawn)	inconclusive: 29.1 µM [falling, single point]
COc1ccc(/C=C/C(=O)c2ccc(OC)cc2O)cc1	inconclusive: 6.51 µM [activator, partial curve, poor fit]
CC(=O)N1CCN(c2ccc(NCc3ccc(F)cc3)cc2)CC1	inconclusive: 18.4 µM [falling, partial curve]
O=C(Nc1ccc2oc(=O)ccc2c1)c1ccc(-c2cccc([N+](=O)[O-])c2)o1	active: 23.1 µM
Cc1nn2c(=O)cc(CN(C)c3ccccc3)nc2s1	inconclusive: 29.1 µM [activator, single point]
COc1ccc(CCNC(=O)CCCOc2ccc(Cl)cc2)cc1OC	inconclusive: 25.9 µM [falling, single point]
Cc1ccc(C(C)NC(=O)c2cccnc2)cc1 (stereo not drawn)	inconclusive: 10.3 µM [falling, partial curve]
CCOc1ccc2cc(C#N)c(SCC(=O)N3CCOCC3)nc2c1	inconclusive: 18.4 µM [activator, partial curve]
COCCn1c(=S)[nH]c2cc(C(=O)N3CCN(c4cccc(Cl)c4)CC3)ccc2c1=O	active: 20.6 µM
COc1ccc(N2CCN(C3CCCN(C(=O)CN4CCOC4=O)C3)CC2)cc1 (stereo not drawn)	inactive

Part of the list above, as labelled records.
C[C@@]12C(=O)OC(=O)[C@]1(C)C1CCC2O1
  Potency: inconclusive: 7.31 µM [falling, partial curve, poor fit]
Cc1ccc2c(c1)CCCN2C(=O)CCc1nc2ccccc2c(=O)[nH]1
  Potency: inconclusive: 16.4 µM [falling, partial curve, poor fit]
O=C(N/N=C/c1ccccc1[N+](=O)[O-])c1cccs1
  Potency: inconclusive: 0.517 µM [activator, full curve]
CCCc1nc(-c2ccccc2)c(-c2ccc(OC)c(OC)c2)c(=O)[nH]1
  Potency: inconclusive: 0.184 µM [activator, partial curve]

Additional entries:

SMILES	Potency
Cc1ccc(O)c(-c2cc(C(=O)NCc3ccccc3)[nH]n2)c1	inconclusive: 6.51 µM [activator, partial curve]
COc1ccccc1/C=C/c1nc(S(=O)(=O)c2ccccc2)c(N(C)C)o1	inconclusive: 10.3 µM [falling, partial curve]
COc1ccc(Cc2n[nH]c(=S)n2N)cc1OC	inactive
COc1cc(/C=N/N=C(\N)c2nonc2N)cc(OC)c1O	inconclusive: 25.9 µM [activator, partial curve, poor fit]
COc1cccc(CN2CCN(C3CCN(c4ccccc4C)CC3)CC2CCO)c1 (stereo not drawn)	inconclusive: 5.17 µM [falling, partial curve, poor fit]
O=C(Cn1c(SCc2cccc(F)c2)nc2cccnc21)Nc1ccc(F)c(Cl)c1	inconclusive: 29.1 µM [falling, single point]
CC(=O)Nc1ccc(S(=O)(=O)N2CCN(c3cccc(C)c3C)CC2)cc1	inconclusive: 29.1 µM [falling, single point]
CC(=O)c1ccc(NC(=O)CCc2c(C)nc3c(c(C)nn3-c3ccc(C)cc3)c2C)cc1	inconclusive: 11.6 µM [activator, partial curve, poor fit]
Cc1cc2ncc(C(=O)Nc3ccsc3C(=O)O)c(C)n2n1	inconclusive: 32.6 µM [activator, single point]
O=c1sc(N2CCN(c3ccccc3F)CC2)nc2ccsc12	inconclusive: 5.8 µM [activator, full curve]
CCOc1cc(C(=O)Nc2cc(C(=O)OC)ccc2C)ccc1OCC(=O)N1CCOCC1	inconclusive: 32.6 µM [falling, single point]
CN(c1ccccc1)S(=O)(=O)c1ccc(NC(=O)c2cccs2)cc1	inconclusive: 25.9 µM [falling, single point]
Cc1cc(NCc2ccccc2)c2ccccc2n1	inconclusive: 16.4 µM [falling, partial curve, poor fit]
Cc1ccc(OCc2cc(C(=O)NCc3ccc(OC(F)(F)F)cc3)no2)cn1	inconclusive: 23.1 µM [falling, single point]
COc1ccc(CCn2c3c(c(=O)[nH]c2=S)CN(Cc2ccccc2)CN3)cc1OC	inconclusive: 29.1 µM [falling, single point]
CN(C)S(=O)(=O)c1cccc(NC(=O)C2CCN(S(=O)(=O)c3cccs3)CC2)c1	inconclusive: 20.6 µM [falling, partial curve, poor fit]
COC(=O)CN1C(=S)N(c2ccc(Cl)cc2)C(=O)C1CC(=O)Nc1ccc(Cl)cc1 (stereo not drawn)	inconclusive: 18.4 µM [falling, single point]
Cc1cccc(NC(=S)N(Cc2cccs2)Cc2cc3cc(C)cc(C)c3[nH]c2=O)c1	inactive
CC(=O)Nc1ccc(Oc2cnc3ccccc3n2)cc1	inconclusive: 13 µM [activator, partial curve]
COc1ccc(-n2cc(CNCc3cnc4ccccn34)c(-c3cccc(F)c3)n2)cc1	inconclusive: 6.51 µM [activator, partial curve]
CCn1c(/C=C/c2ccc(F)cc2)nc2ccccc2c1=O	inactive
S=C(Nc1cccc2ccccc12)NC1CCCCC1	inconclusive: 23.1 µM [activator, single point]
